{"source": "patent US5492802A", "about": "“Dye compounds and photographic elements containing such dyes” (Eastman Kodak Company, priority 1994, dated 1996)", "key": {"[1]": {"experiment": "Dye stain in the B&W format", "details": "Table VII, various coating sets; for Stain (maximum absorbance): at the λmax on the same line, RP X-OMAT processing, 0.8 mmole/mole Ag; for Stain λmax: wavelength of the stain absorbance on the same line"}, "[2]": {"experiment": "Dye stain in the color format", "details": "Table VIII; for Stain (maximum absorbance): at the stain λmax on the same line, 0.4 mmole/mole Ag; for Stain λmax: wavelength of the stain on the same line"}}, "note": "“And” between values parts separate entries of the source, which are not always exact repeats. Equal values may be shown once. Where a name gives a salt, the structure may show the parent alone."}
{"smiles": "CCC(=Cc1oc2ccc(NC(=O)c3ccccc3O)cc2[n+]1CCC(C)S(=O)(=O)[O-])C=C1Oc2ccc(F)cc2N1CCCS(=O)(=O)O", "note": "(stereo not drawn) [Dye I-18]", "values": [{"measurement": "Stain (maximum absorbance)", "setting": "[1]", "result": 39, "unit": "OD × 10^3"}, {"measurement": "Stain λmax", "setting": "[1]", "result": 508}]}
{"smiles": "CCC(=Cc1oc2ccc(NC(=O)c3ccccc3O)cc2[n+]1CCS(=O)(=O)[O-])C=C1Oc2ccc(NC(=O)c3ccccc3O)cc2N1CCS(=O)(=O)O", "note": "[Dye I-19]", "values": [{"measurement": "Stain (maximum absorbance)", "setting": "[1]", "result": "> 100", "unit": "OD × 10^3"}, {"measurement": "Stain λmax", "setting": "[1]", "result": 540}]}
{"smiles": "CCC(=Cc1oc2ccc(-c3ccc(NC(C)=O)cc3)cc2[n+]1CCS(=O)(=O)[O-])C=C1Oc2ccc(-c3ccc(NC(C)=O)cc3)cc2N1CCS(=O)(=O)O", "note": "[Dye I-11]", "values": [{"measurement": "Stain (maximum absorbance)", "setting": "[1]", "result": "84 OD × 10^3 and 78 OD × 10^3"}, {"measurement": "Stain λmax", "setting": "[1]", "result": "500 and 525"}]}
{"smiles": "CCC(=Cc1oc2ccc(-c3ccc[nH]3)cc2[n+]1CCCS(=O)(=O)O)C=C1Oc2ccc(F)cc2N1CCCS(=O)(=O)[O-]", "note": "[Dye I-46]", "values": [{"measurement": "Stain (maximum absorbance)", "setting": "[1]", "result": 38, "unit": "OD × 10^3"}, {"measurement": "Stain λmax", "setting": "[1]", "result": 518}]}
{"smiles": "CCC(=Cc1oc2ccc(-c3cccs3)cc2[n+]1CCCS(=O)(=O)O)C=C1Oc2ccc(Cl)cc2N1CCCS(=O)(=O)[O-]", "note": "[Dye C-8, reference compound]", "values": [{"measurement": "Stain (maximum absorbance)", "setting": "[2]; coating set marked #", "result": 38, "unit": "OD × 10^3"}, {"measurement": "Stain λmax", "setting": "[2]; coating set marked #", "result": 512}]}
{"smiles": "CCC(=Cc1oc2ccc(NC(=O)c3ccco3)cc2[n+]1CCCCS(=O)(=O)O)C=C1Oc2ccc(Cl)cc2N1CCCS(=O)(=O)[O-]", "note": "[Dye I-23, Anhydro-5-chloro-9-ethyl-5'-(2-furancarboxamido)-3'-(4-sulfobutyl)-3-(3-sulfopropyl)oxacarbocyanine triethylammonium salt]", "values": [{"measurement": "Stain (maximum absorbance)", "setting": "[1]", "result": 41, "unit": "OD × 10^3"}, {"measurement": "Stain λmax", "setting": "[1]", "result": 510}]}
{"smiles": "CCC(=Cc1oc2ccc(NC(=O)c3ccc[nH]3)cc2[n+]1CCC(C)S(=O)(=O)O)C=C1Oc2ccc(F)cc2N1CCCS(=O)(=O)[O-]", "note": "(stereo not drawn) [Dye I-33]", "values": [{"measurement": "Stain (maximum absorbance)", "setting": "[1]", "result": 30, "unit": "OD × 10^3"}, {"measurement": "Stain λmax", "setting": "[1]", "result": 508}]}
{"smiles": "CCC(=Cc1oc2ccc(-c3ccc(NC(C)=O)cc3)cc2[n+]1CCS(=O)(=O)[O-])C=C1Oc2ccc(F)cc2N1CCCS(=O)(=O)O", "note": "[Dye I-9]", "values": [{"measurement": "Stain (maximum absorbance)", "setting": "[1]", "result": 46, "unit": "OD × 10^3"}, {"measurement": "Stain λmax", "setting": "[1]", "result": 508}]}
{"smiles": "CCC(=Cc1oc2ccc(-c3ccccc3)cc2[n+]1CCC(C)S(=O)(=O)O)C=C1Oc2ccc(-c3ccccc3)cc2N1CCC(C)S(=O)(=O)[O-]", "note": "(stereo not drawn) [Dye C-3, reference compound]", "values": [{"measurement": "Stain λmax", "setting": "[2]; set not marked #", "result": "512 and 550"}]}
{"smiles": "CCC(=Cc1oc2ccc(-c3ccc(NC(C)=O)cc3)cc2[n+]1CCCS(=O)(=O)[O-])C=C1Oc2ccc(Cl)cc2N1CCCS(=O)(=O)O", "note": "[Dye I-6]", "values": [{"measurement": "Stain (maximum absorbance)", "setting": "[1]", "result": 47, "unit": "OD × 10^3"}, {"measurement": "Stain λmax", "setting": "[1]", "result": 510}]}
{"smiles": "CCC(=Cc1oc2ccc(-c3ccccc3)cc2[n+]1CCCS(=O)(=O)O)C=C1Oc2ccc(NC(C)=O)cc2N1CCCS(=O)(=O)[O-]", "note": "[Dye C-5, reference compound]", "values": [{"measurement": "Stain (maximum absorbance)", "setting": "[2]; set not marked #", "result": 24, "unit": "OD × 10^3"}, {"measurement": "Stain λmax", "setting": "[2]; set not marked #", "result": 512}]}
{"smiles": "CCC(=Cc1oc2ccc(C(=O)Nc3ccccc3)cc2[n+]1CCCS(=O)(=O)O)C=C1Oc2ccc(Cl)cc2N1CCCS(=O)(=O)[O-]", "note": "[Dye I-37]", "values": [{"measurement": "Stain (maximum absorbance)", "setting": "[2]; set not marked #", "result": 12, "unit": "OD × 10^3"}, {"measurement": "Stain λmax", "setting": "[2]; set not marked #", "result": 505}]}
{"smiles": "CCC(=Cc1oc2ccc(-c3ccco3)cc2[n+]1CCCS(=O)(=O)O)C=C1Oc2ccc(Cl)cc2N1CCS(=O)(=O)[O-]", "note": "[Dye I-48]", "values": [{"measurement": "Stain (maximum absorbance)", "setting": "[1]", "result": 36, "unit": "OD × 10^3"}, {"measurement": "Stain λmax", "setting": "[1]", "result": 510}]}
{"smiles": "O=C(Nc1ccc2sc(C=C3Sc4ccc(Cl)cc4N3CCCS(=O)(=O)[O-])[n+](CCCS(=O)(=O)O)c2c1)c1ccccc1O", "note": "[Dye I-35]", "values": [{"measurement": "Stain (maximum absorbance)", "setting": "[2]; set not marked #", "result": 34, "unit": "OD × 10^3"}, {"measurement": "Stain λmax", "setting": "[2]; set not marked #", "result": 465}]}
